Drawing on article PMC11313276, “Structures of Mature and Urea-Treated Empty Bacteriophage T5: Insights into Siphophage Infection and DNA Ejection” (International Journal of Molecular Sciences, 2024), this text covers binding for one molecule.

No constants are given. Whether binding was seen depends on the method and setting. Binding calls can cover weak binding; strength is not graded here.

Assay [1] addresses adaptor protein p144 (bacteriophage T5). As to the kind of experiment: cryo-EM structure; urea-treated empty T5 (purified virions, 4 M urea, 2 h, 37 °C, dialyzed in buffer A; DNA and TMP ejected, tip complex lost); symmetry-mismatch and local reconstruction of the connector complex; both purified.
For assay [2] the target is unchanged. Briefly: cryo-EM structure; mature T5 virions (fiberless mutant) purified by CsCl gradients, in buffer A (100 mM NaCl, 1 mM MgSO4, 1 mM CaCl2, 10 mM Tris-HCl, pH 7.6); icosahedral, symmetry-mismatch and local reconstructions of head, portal, connector, tail tube and tail tip; both purified.

B1: portal protein pb7 (natural protein, bacteriophage T5)
chain: LNPGQRIIRDMEPVSHRTNRKPFTTGQAYSKIEILNRTANMVIDSAAECSYTVGDKYNIVTYANGVKTKTLDTLLNVRPNPFMDISTFRRLVVTDLLFEGCAYIYWDGTSLYHVPAALMQVEADANKFIKKFIFNNQINYRVDEIIFIKDNSYVCGTNSQISGQSRVATVIDSLEKRSKMLNFKEKFLDNGTVIGLILETDEILNKKLRERKQEELQLDYNPSTGQSSVLILDGGMKAKPYSQISSFKDLDFKEDIEGFNKSICLAFGVPQVLLDGGNNANIRPNIELFYYMTIIPMLNKLTSSLTFFFGYKITPNTKEVAALTPDKEAEAKHLTSLVNNGIITGNEARSELNLEPLDDEQMNKIRIPANVAGSATGVSGQEGGRPKGSTEGD
notes: portal protein pb7 of bacteriophage T5, 403 residues in total; atomic model built for residues 11-377; source: also in virions treated with 4 M urea for 2 h at 37 °C and dialyzed; copies: 12
B1: the binding result in assay [1] and in assay [2] was “binds” in each case.
